## Library screen at single concentrations

Protein sequences, listed by entry. Tags and fused reporters are not part of them. Residues count along the entry.
UniProt I6X8D2, whole entry: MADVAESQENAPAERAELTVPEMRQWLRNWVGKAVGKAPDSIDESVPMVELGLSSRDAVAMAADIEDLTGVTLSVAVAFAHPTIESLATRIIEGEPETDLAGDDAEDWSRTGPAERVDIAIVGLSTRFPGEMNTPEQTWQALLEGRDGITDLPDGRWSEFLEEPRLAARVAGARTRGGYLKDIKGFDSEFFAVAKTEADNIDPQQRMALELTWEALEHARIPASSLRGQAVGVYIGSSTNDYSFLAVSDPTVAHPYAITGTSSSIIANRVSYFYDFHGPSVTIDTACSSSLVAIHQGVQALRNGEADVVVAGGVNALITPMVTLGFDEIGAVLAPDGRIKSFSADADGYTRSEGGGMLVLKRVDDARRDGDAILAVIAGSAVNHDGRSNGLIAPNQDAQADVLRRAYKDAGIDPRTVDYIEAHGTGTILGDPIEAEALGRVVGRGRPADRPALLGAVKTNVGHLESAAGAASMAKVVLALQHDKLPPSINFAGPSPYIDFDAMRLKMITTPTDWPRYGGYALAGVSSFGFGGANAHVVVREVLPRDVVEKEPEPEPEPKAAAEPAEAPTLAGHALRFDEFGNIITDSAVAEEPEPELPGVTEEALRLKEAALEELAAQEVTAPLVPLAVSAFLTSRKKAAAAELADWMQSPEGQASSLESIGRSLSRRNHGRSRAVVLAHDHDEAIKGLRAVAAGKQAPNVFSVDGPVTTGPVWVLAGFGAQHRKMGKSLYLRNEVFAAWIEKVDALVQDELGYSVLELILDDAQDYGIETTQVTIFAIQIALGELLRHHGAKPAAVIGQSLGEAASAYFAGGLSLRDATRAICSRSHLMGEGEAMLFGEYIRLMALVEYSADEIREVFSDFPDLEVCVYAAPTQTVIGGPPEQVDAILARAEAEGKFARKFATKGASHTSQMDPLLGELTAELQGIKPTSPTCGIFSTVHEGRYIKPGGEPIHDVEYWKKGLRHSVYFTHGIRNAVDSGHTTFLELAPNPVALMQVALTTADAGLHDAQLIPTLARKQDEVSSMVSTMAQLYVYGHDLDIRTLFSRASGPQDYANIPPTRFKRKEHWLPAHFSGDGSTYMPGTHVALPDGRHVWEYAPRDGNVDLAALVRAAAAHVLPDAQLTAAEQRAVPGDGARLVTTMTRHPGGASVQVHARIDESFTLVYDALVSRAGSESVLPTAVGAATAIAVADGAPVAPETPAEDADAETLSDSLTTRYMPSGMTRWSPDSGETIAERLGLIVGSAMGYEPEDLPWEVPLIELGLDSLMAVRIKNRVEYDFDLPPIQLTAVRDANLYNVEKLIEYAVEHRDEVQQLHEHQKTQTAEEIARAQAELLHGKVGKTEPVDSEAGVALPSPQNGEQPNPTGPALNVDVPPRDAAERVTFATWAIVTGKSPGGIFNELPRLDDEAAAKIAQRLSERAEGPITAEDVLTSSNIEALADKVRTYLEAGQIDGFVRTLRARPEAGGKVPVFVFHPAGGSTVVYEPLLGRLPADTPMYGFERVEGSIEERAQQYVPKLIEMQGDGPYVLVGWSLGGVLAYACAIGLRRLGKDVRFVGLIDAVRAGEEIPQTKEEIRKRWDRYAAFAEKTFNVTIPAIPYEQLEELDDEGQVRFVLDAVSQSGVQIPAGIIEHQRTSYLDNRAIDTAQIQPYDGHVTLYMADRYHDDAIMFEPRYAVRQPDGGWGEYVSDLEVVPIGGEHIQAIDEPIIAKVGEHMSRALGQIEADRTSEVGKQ
UniProt Q8IDJ8, 1-583: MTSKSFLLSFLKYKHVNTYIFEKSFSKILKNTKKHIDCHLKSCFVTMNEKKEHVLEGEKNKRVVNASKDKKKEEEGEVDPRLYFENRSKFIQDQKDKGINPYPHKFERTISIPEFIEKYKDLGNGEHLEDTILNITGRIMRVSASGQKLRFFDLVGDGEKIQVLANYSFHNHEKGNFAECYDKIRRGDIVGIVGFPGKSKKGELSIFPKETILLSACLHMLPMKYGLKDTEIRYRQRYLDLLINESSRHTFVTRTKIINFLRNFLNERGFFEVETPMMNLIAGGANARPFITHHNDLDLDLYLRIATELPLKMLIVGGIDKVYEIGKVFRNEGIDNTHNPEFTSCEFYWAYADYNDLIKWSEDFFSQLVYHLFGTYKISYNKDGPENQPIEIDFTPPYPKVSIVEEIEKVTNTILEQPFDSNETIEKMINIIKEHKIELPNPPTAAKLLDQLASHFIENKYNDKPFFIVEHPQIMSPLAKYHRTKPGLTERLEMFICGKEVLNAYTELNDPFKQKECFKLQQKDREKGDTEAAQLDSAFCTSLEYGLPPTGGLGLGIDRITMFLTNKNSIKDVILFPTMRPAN
UniProt A4I591, 1-473: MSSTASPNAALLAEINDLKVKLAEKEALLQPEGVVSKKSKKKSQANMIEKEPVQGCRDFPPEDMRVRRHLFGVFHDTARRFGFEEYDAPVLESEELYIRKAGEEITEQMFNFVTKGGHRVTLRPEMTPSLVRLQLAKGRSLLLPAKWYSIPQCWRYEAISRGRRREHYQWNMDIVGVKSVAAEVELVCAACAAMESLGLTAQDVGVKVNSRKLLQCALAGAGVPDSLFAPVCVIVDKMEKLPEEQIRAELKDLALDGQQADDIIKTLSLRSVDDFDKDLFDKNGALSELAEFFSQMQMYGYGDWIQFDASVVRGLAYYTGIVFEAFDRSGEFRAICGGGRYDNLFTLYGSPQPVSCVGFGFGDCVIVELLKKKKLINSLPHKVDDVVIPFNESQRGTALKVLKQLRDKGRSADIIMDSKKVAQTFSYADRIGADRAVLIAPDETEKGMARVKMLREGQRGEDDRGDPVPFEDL
UniProt Q4DA54, 1-478: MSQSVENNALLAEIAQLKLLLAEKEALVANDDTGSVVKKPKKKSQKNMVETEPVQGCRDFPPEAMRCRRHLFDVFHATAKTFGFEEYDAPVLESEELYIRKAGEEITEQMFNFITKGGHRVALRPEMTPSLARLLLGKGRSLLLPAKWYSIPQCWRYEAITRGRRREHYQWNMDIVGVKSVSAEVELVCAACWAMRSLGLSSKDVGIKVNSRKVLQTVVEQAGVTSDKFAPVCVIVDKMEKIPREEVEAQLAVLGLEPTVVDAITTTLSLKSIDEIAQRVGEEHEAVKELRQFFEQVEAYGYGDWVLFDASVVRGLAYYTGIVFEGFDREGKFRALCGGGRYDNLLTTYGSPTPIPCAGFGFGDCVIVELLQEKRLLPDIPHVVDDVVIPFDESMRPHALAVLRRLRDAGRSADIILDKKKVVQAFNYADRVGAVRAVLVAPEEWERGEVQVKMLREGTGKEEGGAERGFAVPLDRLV

Pks13 thioesterase: 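Polyketide synthase Pks13, Mycobacterium tuberculosis (UniProt I6X8D2). Enzyme assay of the thioesterase domain of polyketide synthase 13; the read-out is not stated. Concentration: 30 µM. Higher reads as stronger inhibition (inferred from which compounds were picked for retests). About 67,000 compounds were tested under these conditions; 0.46% (about 300) showed 50% or more at least once.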
PfKRS1: 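Enzyme assay of the cytosolic lysyl-tRNA synthetase in 384-well plates, read by luminescence. Target: Lysine-tRNA ligase, Plasmodium falciparum 3D7 (UniProt Q8IDJ8). Tested at 30 µM. Direction is inferred from only a few compounds that gave an IC50; most scored high, so higher reads as stronger inhibition. Of about 69,000 compounds tested this way, about 49 (0.071%) reached 50% or more in at least one test.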
LiHisRS: 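Histidine-tRNA ligase, Leishmania infantum (UniProt A4I591). Enzyme assay of histidyl-tRNA synthetase; the read-out is not stated. Tested at 30 µM. Direction is inferred from retests: higher values go with stronger inhibition. The assay is labelled LdHisRS but filed under L. infantum. About 69,000 compounds were tested under these conditions; 0.6% (about 410) showed 50% or more at least once.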
TcHisRS: 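Enzyme assay of histidyl-tRNA synthetase; the read-out is not stated. Target: Histidine-tRNA ligase, Trypanosoma cruzi CL Brener (UniProt Q4DA54). Compounds at 30 µM. Higher reads as stronger inhibition (inferred: compounds with an IC50 in retests scored well above the rest). Size under these conditions: about 69,000 compounds, about 31 of them at 50% or above in at least one test.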

Each number is a percent effect as filed.
The record does not define 0% and 100%; most values in the screen are far below 50% and negative numbers occur (in some assays of this library far below -100).
The compounds are a random part of those screened.
A dash means the value is not listed here; it may have been measured.

| structure | Pks13 thioesterase | PfKRS1 | LiHisRS | TcHisRS |
|---|---|---|---|---|
| `CCn1ccnc1CN1CCN(CC(=O)NC(C)(C#N)C2CC2)CC1` (configuration not stated) | -1.279 | 0.4002 | 16.8 | -80.99 |
| `O=C(O)CCc1ccc(S(=O)(=O)Nc2cnn(CC(F)(F)F)c2)cc1` | -9.524 | 3.348 | 23.6 | 11.92 |
| `CCn1cc(CN2CCCC3(CCC(=O)N(CCC(C)C)C3)C2)cn1` (configuration not stated) | -31.13 | -0.2024 | 3.125 | -2.128 |
| `NC(=O)C1CCN(c2ccc(C(=O)N3CCc4ccccc43)cn2)C1` (configuration not stated) | -9.466 | 8.059 | 24.78 | 3.571 |
| `CN(C)Cc1ccc(C2CCCCN2C(=O)c2cc(C3CC3)n[nH]2)cc1` (configuration not stated) | -0.8911 | -1.824 | 15.24 | 9.917 |
| `CCNC(=O)[C@@H]1CCCN1C1(C(=O)NC)CCC1` | -29.75 | 8.647 | 27.78 | 16.83 |
| `COc1cccc(-c2cc(C(=O)NCCn3nc(C)nc3C)[nH]n2)c1` | -5.979 | 4.918 | 22.83 | 1.98 |
| `CCc1nc(C)sc1CN1CC[C@@](O)(C2CCOCC2)[C@H](C)C1` | 0.1006 | -2.174 | 2.381 | 5.941 |
| `CN(C)CCN1CCO[C@H]2CN(C(=O)c3ccsc3)C[C@H]21` | -10.54 | 3.284 | 18.87 | 7.778 |
| `Cn1c2c(ccc1=O)CC(Nc1ncc(F)cn1)CC2` (configuration not stated) | -2.2 | -1.158 | 9.091 | 7.097 |
| `COc1cccc(-n2cc(-c3ccnc(N[C@H](CO)C(C)C)n3)cn2)c1` | -16.99 | -0.6725 | 10 | 3.896 |
| `O=C(CCN1CCCN(c2nccs2)CC1)NCC1CCCCC1` | -11.47 | 7.405 | 12.16 | 3.396 |
| `Cc1oc(C(C)C)cc1C(=O)N1C[C@H]2CC[C@@H]1CN(c1ncccn1)C2` | -29.62 | 9.986 | 22.37 | 3.261 |
| `CC(C)(C)c1cc(NC(=O)CN2CCC(N3CCNC3=O)CC2)on1` | 80.94 | -1.152 | 1.709 | -0.2849 |
| `Cc1cccnc1CN1CC[C@@](C)(O)[C@H](Oc2ccccc2)C1` | 2.112 | 1.155 | 14.48 | 7.605 |
| `Cc1nc(CN(C)c2cc(N3CCCC3CO)ncn2)cs1` (configuration not stated) | -26.27 | 1.627 | 6.25 | -14.92 |
| `CC(=O)NC1CCN(C(=O)Nc2cccc(SC(F)F)c2)CC1` | -18 | 7.222 | 10.42 | 6.329 |
| `COc1ccc(-c2nc(C3(NC(=O)OC(C)(C)C)CCC3)no2)cn1` | -20.29 | 2.772 | 10.53 | -2.521 |
| `Cc1ccccc1S(=O)(=O)NC(=O)C1(c2ccccc2)CCC1` | 0.7561 | 5.079 | 22.45 | 12 |
| `CC(C)CC1SCC(=O)Nc2c1cnn2C(C)C` (configuration not stated) | -23.29 | 5.913 | 15.53 | 2.732 |
| `CCNC(=O)[C@@H]1C[C@@H](NC(=O)c2cc(C)on2)CN1Cc1ccccn1` | 7.086 | -2.313 | 18.37 | 13 |
| `Cc1ccc(CN2CC[C@H]3CO[C@H](CN4CCCC4)[C@H]3C2)o1` | -18.85 | 3.473 | 10 | 0 |
| `Cc1ccc2nc(C3CCCN(Cc4ccccc4)C3)nc(O)c2c1` (configuration not stated) | -5.899 | -2.194 | -2.759 | 4.142 |
| `Cc1cc(C)nc(NCCCC(=O)NCCn2ccc3ccccc32)n1` | -29.6 | 2.909 | 26.32 | 18.13 |
| `CSc1ccc(CNC(=O)Cc2c(C)n[nH]c2C)cc1` | - | 2.781 | 14.13 | 0.9901 |
| `Cc1cnn(CC2CCCN2C(=O)c2nccc3ccccc23)c1` (configuration not stated) | -15.87 | 5.296 | 2.667 | 0.3774 |
| `CN(C)c1nc2c(c(N3CCC4(CCCNC4=O)C3)n1)CCCC2` (configuration not stated) | -5.848 | -6.276 | -2.74 | 1.093 |
| `Cc1ccc2c(c1)c(CNC(=O)C1CCN(CC(N)=O)CC1)nn2C` | -27.77 | 2.264 | 16.67 | 9.091 |
| `CC(C)Nc1cccc(CNC(=O)N2CCC(N3CC=CC3)C2)c1` (configuration not stated) | -4.082 | -5.446 | 7.965 | -1.327 |
| `Cc1ccc(C(O)CN(C)Cc2cnn(C)c2)cc1C` (configuration not stated) | -19.25 | 3.098 | -2.41 | 7.182 |
| `O=C(c1cnc(-c2cnccn2)s1)N1CCCC1Cn1cccn1` (configuration not stated) | -5.424 | -0.7714 | 7.018 | 3.725 |
| `N#Cc1ccccc1C(=O)N1C[C@H]2CC[C@@H]1CN(c1ncccn1)C2` | -3.41 | -2.684 | 5.6 | -3.518 |
| `CCn1cc(C(=O)N2CCCC(c3nccs3)C2)cn1` (configuration not stated) | 4.005 | 1.201 | -4.348 | 1.099 |
| `Cc1csc(CNCC2CCCN(C(=O)OC(C)(C)C)C2)n1` (configuration not stated) | 1.409 | 4.799 | 6.25 | 8.861 |
| `O=C(CCc1ccc(F)cc1)NS(=O)(=O)c1ccc2c(c1)OCCCO2` | 4.744 | -6.457 | -3.774 | 5 |
| `O=C1CC2(CCN(CC3CC3)C2)CN1c1cccnc1` (configuration not stated) | -9.802 | 3.746 | 15.09 | 5.085 |
| `COc1ccccc1C1CNC(=O)c2nc(-c3cnn(C)c3)[nH]c2C1` (configuration not stated) | -19.82 | 1.526 | 25 | 3.333 |
| `CCn1cc(CN2CCCC(c3[nH]ncc3S(C)(=O)=O)C2)cn1` (configuration not stated) | -17.32 | -0.4929 | 14.29 | 0 |
| `COc1ccc2c(c1)nc1n2[C@@H](CNC(=O)c2cccnc2)COC1` | - | 3.808 | 4.054 | 9.783 |
| `COCCN1CCc2ccc(=O)n(Cc3csc(C)n3)c2CC1` | -30.8 | -0.4826 | 12.82 | 4.813 |
| `Cc1nc(C)c(C)c(N2CCC3(CCN(C)C3)C2)n1` (configuration not stated) | -31.18 | -3.656 | 5 | 1.299 |
| `CCc1cnc(CN2CCC(N(C)Cc3noc(C)n3)C2)o1` (configuration not stated) | -18.51 | -2.379 | 15.38 | 6.286 |
| `O=C(NCc1cccnc1-n1cccn1)C1CC(=O)N(CC2CC2)C1` (configuration not stated) | -6.671 | 2.719 | 0 | 1.887 |
| `Cc1nccn1-c1ccc(NC(=O)C2CCCN2Cc2ccoc2)cc1` (configuration not stated) | -24.2 | 4.393 | 5.128 | 9.551 |
| `CN(C)C(=O)NC1COC2(CCN(Cc3ccc(N(C)C)cc3)CC2)C1` (configuration not stated) | -18.52 | 2.972 | 17.65 | 4.926 |
| `Cn1ncc(-c2cc(-c3cccc(O)c3)nc(N)c2C#N)c1C1CC1` | -164.4 | 3.768 | 64.56 | 3.879 |
| `CN(C)c1ccc(CC(=O)N2CCOCC(O)C2)cc1` (configuration not stated) | 0.01854 | -1.792 | 4.8 | 0.9804 |
| `CN1CCN(Cn2nc(-c3cccs3)ccc2=O)CC1` | -28.3 | 3.322 | 2.632 | 1.754 |
| `CC(Nc1ccn(Cc2ccccn2)n1)C(=O)NC(C)(C)C` (configuration not stated) | -10.13 | 17.43 | 29.41 | 4.762 |
| `Cc1nn(C)c(C)c1C1CCCN1c1ncnc2sccc12` (configuration not stated) | 5.57 | 6.679 | 11.61 | 16.67 |
| `COCCC1COC2(CCN(C(C)=O)CC2)C1` (configuration not stated) | -18.36 | 3.468 | 7.895 | 10.34 |
| `CC1CCN(CCNC(=O)c2cncnc2C(C)C)CC1` | -3.074 | 6.367 | 18.27 | 8.13 |
| `O=C1[C@H]2CN(c3ncccn3)C[C@H]2CN1Cc1ccncc1` | -2.044 | 0.7587 | -1.923 | 3.743 |
| `COc1cc(CC2CC(C(N)=O)=NO2)cc2c1OCO2` (configuration not stated) | 2.511 | 1.703 | 2.381 | 4.95 |
| `COc1ccc(OCCN2CCOCS2(=O)=O)cc1` | -8.313 | 4.821 | 9.677 | 4.545 |
| `O=C(NC1CC1)N1C[C@@H]2CCN(C(=O)c3cscn3)[C@@H]2C1` | -28.89 | 0.1856 | 1.887 | 1.111 |
| `CCN(Cc1ccncc1)CC1(O)CCN(C(=O)c2cnn(C)c2)C1` (configuration not stated) | 1.47 | 1.467 | 13.68 | 5.224 |
| `CS(=O)(=O)c1ccccc1NC(=O)N[C@@H]1c2ccccc2C[C@@H]1O` | -0.3538 | 3.299 | 20 | 15.15 |
| `CN(Cc1cccc(F)c1)C(=O)c1cc2c([nH]c1=O)CCCC2=O` | -11.5 | -0.4512 | 16.51 | 6.122 |

Repeated from the top, 6 entries:

{"structure": "CCn1ccnc1CN1CCN(CC(=O)NC(C)(C#N)C2CC2)CC1", "stereo": "configuration not stated", "Pks13 thioesterase": -1.279, "PfKRS1": 0.4002, "LiHisRS": 16.8, "TcHisRS": -80.99}
{"structure": "O=C(O)CCc1ccc(S(=O)(=O)Nc2cnn(CC(F)(F)F)c2)cc1", "Pks13 thioesterase": -9.524, "PfKRS1": 3.348, "LiHisRS": 23.6, "TcHisRS": 11.92}
{"structure": "CCn1cc(CN2CCCC3(CCC(=O)N(CCC(C)C)C3)C2)cn1", "stereo": "configuration not stated", "Pks13 thioesterase": -31.13, "PfKRS1": -0.2024, "LiHisRS": 3.125, "TcHisRS": -2.128}
{"structure": "NC(=O)C1CCN(c2ccc(C(=O)N3CCc4ccccc43)cn2)C1", "stereo": "configuration not stated", "Pks13 thioesterase": -9.466, "PfKRS1": 8.059, "LiHisRS": 24.78, "TcHisRS": 3.571}
{"structure": "CN(C)Cc1ccc(C2CCCCN2C(=O)c2cc(C3CC3)n[nH]2)cc1", "stereo": "configuration not stated", "Pks13 thioesterase": -0.8911, "PfKRS1": -1.824, "LiHisRS": 15.24, "TcHisRS": 9.917}
{"structure": "CCNC(=O)[C@@H]1CCCN1C1(C(=O)NC)CCC1", "Pks13 thioesterase": -29.75, "PfKRS1": 8.647, "LiHisRS": 27.78, "TcHisRS": 16.83}

From ChEMBL document CHEMBL3988442, “University of Dundee, Small-Polar-MMV Screening Library” (2021).